Two substances from article doi:10.1101/2021.07.08.451585 can be followed below.

Amino acid sequences for entries named in this document (tags omitted). Residues count along the entry.
UniProt P25705, residues 44-553: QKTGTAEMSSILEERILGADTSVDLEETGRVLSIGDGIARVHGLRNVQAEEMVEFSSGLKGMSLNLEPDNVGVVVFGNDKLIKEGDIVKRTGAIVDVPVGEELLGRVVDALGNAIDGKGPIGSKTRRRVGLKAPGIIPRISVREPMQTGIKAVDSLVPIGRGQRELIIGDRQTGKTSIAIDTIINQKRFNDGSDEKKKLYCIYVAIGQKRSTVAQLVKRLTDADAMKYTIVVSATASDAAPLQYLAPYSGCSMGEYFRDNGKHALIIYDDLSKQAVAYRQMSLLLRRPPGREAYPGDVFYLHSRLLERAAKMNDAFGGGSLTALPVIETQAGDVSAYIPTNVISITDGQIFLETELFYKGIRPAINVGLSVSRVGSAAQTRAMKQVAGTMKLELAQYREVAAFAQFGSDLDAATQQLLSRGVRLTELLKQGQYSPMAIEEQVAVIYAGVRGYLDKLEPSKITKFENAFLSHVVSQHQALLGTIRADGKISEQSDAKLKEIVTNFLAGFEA
UniProt P38646, residues 47-679: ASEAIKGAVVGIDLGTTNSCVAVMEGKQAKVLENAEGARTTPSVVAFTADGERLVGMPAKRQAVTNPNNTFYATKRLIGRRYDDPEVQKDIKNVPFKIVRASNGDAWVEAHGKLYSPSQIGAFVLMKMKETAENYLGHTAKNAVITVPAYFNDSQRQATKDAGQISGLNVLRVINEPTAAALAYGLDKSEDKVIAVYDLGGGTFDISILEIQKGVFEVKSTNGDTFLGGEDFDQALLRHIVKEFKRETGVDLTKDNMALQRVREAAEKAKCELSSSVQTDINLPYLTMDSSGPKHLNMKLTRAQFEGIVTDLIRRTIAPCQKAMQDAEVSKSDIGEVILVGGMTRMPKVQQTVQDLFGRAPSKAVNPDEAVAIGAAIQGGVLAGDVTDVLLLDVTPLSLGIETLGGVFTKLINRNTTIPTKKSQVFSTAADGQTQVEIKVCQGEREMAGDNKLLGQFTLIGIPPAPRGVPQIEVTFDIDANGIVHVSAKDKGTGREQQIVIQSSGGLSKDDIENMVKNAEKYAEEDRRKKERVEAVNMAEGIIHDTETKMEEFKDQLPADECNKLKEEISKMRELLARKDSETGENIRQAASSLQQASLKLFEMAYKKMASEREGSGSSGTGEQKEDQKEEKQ

Results are given in words; binding and its absence hold for the method and conditions named. Binding seen in cells or lysates may run through a third protein. These calls come from enrichment with a bait or labelling near it, and not all partners need be listed. For some of these results: No binding means not detected with the bait. For some of these results: Tags and fused reporters may be left off the sequences shown.

Assay [1] deals with T1, BioID2-tagged wildtype human CLUH (BioID2-3xHA-CLUH) (human) (UniProt O75153).
T1 sequence: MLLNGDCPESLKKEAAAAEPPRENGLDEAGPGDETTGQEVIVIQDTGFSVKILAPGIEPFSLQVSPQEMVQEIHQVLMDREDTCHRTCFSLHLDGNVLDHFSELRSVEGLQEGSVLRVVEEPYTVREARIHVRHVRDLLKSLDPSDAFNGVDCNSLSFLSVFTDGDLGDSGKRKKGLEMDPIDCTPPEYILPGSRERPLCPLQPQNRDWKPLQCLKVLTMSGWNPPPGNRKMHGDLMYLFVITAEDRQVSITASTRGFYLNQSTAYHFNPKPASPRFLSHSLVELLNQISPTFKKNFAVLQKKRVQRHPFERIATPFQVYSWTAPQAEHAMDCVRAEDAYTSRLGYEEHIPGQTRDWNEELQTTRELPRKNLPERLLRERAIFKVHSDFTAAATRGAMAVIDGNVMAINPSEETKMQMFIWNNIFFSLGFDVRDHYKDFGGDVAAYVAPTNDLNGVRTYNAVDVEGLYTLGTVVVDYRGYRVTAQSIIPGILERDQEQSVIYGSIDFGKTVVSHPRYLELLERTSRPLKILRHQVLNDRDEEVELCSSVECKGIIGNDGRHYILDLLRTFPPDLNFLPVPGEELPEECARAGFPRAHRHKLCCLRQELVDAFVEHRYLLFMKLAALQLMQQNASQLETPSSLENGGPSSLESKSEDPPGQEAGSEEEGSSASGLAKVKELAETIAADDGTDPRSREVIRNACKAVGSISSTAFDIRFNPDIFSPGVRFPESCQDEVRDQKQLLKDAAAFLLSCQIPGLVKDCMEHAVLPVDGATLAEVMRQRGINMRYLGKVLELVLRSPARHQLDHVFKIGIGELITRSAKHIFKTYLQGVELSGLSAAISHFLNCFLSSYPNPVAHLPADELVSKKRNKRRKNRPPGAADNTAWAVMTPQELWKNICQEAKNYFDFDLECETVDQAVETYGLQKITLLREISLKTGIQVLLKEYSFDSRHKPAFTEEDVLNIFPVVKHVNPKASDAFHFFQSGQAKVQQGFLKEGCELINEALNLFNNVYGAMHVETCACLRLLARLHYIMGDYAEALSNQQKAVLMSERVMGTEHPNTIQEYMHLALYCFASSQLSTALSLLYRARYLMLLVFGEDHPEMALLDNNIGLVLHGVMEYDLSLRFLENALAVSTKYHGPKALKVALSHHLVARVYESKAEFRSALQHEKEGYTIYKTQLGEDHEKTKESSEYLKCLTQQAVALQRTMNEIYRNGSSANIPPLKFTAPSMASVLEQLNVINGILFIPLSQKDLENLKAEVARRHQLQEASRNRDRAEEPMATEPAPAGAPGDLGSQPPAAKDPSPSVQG
The assay can be described thus: proximity labelling.

For assay [2], the target named is T2, CLUH lacking TPR domain (BioID2-3xHA-CLUHΔTPR) (human) (UniProt O75153).
T2 sequence: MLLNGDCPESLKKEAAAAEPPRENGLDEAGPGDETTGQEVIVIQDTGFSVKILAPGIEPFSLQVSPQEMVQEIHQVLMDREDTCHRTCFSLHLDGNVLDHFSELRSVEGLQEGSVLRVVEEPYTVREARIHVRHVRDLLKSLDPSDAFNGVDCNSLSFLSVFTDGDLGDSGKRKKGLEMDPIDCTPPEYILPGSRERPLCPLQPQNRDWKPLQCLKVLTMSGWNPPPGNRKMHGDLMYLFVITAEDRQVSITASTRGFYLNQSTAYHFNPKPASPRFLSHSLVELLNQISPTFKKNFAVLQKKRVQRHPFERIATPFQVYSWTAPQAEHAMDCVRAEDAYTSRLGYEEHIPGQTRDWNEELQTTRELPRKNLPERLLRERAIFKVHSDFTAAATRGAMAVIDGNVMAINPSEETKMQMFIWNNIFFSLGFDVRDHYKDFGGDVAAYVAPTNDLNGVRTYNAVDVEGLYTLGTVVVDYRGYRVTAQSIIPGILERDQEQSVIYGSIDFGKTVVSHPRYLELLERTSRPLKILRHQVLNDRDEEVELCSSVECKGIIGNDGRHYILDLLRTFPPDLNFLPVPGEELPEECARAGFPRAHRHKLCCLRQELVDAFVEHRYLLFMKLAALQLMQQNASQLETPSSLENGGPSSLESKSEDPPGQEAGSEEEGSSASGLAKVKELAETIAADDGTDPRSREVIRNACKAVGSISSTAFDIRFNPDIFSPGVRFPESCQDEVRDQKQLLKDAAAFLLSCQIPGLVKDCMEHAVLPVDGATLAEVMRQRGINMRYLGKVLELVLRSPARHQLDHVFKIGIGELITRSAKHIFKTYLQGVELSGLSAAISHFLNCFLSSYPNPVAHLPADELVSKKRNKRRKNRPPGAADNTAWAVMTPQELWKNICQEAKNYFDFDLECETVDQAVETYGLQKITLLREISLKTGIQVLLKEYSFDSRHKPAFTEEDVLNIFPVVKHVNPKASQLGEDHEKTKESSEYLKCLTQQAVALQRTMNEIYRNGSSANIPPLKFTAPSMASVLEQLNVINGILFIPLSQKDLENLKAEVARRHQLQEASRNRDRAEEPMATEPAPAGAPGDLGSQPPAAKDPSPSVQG
The assay can be described thus: proximity labelling.

Turning to “ATP5A, endogenous in HCT116 cells (from UniProt P25705 44-553)”, the values for the binding result in assay [1] and in assay [2] were “binds” and “no binding”, respectively.
With “HSPA9, endogenous in HCT116 cells (from UniProt P38646 47-679)”, the binding result is given as “binds” in assay [1] and “no binding” in assay [2].
